These are yes or no findings as the source states them, for the method shown. For part of these data: Binding seen in cells or lysates may run through a third protein. Some results given as binding are weak or reduced against the parent protein; the word gives no strength. For part of these data: Sequences can lack the tags named with a protein. Each block holds one molecule with its values, some of them ahead of it.
How the values were obtained:
[1] = target: T1, Myc-USP21 (ubiquitin-specific peptidase 21), wild type (human) (UniProt Q9UK80); test: co-IP; HEK293T cells co-transfected with Flag- and Myc-tagged constructs; lysis in HEPES buffer (20 mM HEPES, 50 mM NaCl, 0.5% Triton-X 100, 1 mM NaF); IP with anti-Flag or anti-Myc antibodies, protein A/G-agarose, 4 °C; western blot
T1 sequence: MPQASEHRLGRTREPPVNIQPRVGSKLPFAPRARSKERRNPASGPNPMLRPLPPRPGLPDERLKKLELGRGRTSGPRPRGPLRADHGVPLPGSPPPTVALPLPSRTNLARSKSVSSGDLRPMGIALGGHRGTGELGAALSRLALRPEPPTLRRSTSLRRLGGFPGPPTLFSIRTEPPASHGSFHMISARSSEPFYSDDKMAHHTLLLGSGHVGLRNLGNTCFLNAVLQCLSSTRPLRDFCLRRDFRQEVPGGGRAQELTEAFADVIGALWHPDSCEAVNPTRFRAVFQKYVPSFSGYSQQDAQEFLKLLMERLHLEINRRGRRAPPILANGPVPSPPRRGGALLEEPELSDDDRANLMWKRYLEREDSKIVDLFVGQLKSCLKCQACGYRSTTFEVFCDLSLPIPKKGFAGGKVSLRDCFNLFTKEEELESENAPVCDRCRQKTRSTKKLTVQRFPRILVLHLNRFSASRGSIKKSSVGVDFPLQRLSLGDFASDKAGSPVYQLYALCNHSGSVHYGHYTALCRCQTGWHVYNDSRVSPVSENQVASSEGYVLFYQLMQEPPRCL

Protein sequences, listed by entry. Tags and fused reporters are not part of them.
UniProt Q9H9S0: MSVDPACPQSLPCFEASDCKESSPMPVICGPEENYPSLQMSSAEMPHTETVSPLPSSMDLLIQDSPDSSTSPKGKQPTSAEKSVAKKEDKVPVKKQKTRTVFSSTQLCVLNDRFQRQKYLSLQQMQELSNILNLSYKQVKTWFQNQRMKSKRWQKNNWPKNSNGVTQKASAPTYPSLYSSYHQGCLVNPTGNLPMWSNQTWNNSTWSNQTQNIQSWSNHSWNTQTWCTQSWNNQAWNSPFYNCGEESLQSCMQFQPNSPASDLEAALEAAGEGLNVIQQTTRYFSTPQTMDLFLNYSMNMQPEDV

[2] = target: T2, GST-USP21 (human) (UniProt Q9UK80); test: pull-down; GST or GST-USP21 from E. coli BL21 immobilized on glutathione-Sepharose 4B beads, incubated with purified His-Nanog for 8–12 h at 4 °C; blotted with anti-His or anti-GST; both purified
T2 sequence: T1 sequence

[3] = target: T3, endogenous Nanog of mouse ESCs (E14) (mouse (endogenous in E14)) (UniProt Q80Z64); test: co-IP; endogenous proteins in E14 and NCCIT cell lysates; IP with control IgG, anti-Nanog or USP21 antibodies; western blot
T3 sequence: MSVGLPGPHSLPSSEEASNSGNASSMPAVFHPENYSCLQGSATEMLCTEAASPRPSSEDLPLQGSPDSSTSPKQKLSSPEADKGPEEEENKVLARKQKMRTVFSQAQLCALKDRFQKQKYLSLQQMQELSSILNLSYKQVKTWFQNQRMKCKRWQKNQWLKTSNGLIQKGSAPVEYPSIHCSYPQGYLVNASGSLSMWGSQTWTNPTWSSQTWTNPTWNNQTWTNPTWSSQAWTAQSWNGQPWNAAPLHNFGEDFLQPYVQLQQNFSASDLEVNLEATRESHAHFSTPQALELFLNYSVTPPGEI

binding [1]: binds
Molecule: Flag-Nanog (from UniProt Q9H9S0 1-305)

binding [2]: binds
Molecule: His-Nanog (from UniProt Q9H9S0 1-305)

binding [3]: binds
B1: endogenous USP21 of mouse ESCs (E14) (enzyme, UniProt Q9QZL6 1-566)
chain: MPQASEHRLGRTREPPVNVQPRVGAKIPFPPRARSKERRNPVPGPNSMLRPLPPRPGPPDERLKKLELGRGRTSGSRPRGPLRADHGVPLPGSPPPAVALPLPSRTNLARSKSVSSGDLRPMGIALGGHRGAGELGAALSRLALRPEPPTLRRSTSLRRLGGFPGPPTLLSIRTEPPTSHGSFHMISARPSEPFYSDDKMAHHTLLLGSGHVGLRNLGNTCFLNAVLQCLSSTRPLRDFCLRRDFRQEVPGGGRAQELTEAFADVIGALWHPDSCEAVNPTRFRAVFQKYVPSFSGYSQQDAQEFLKLLMERLHLEINRRGRRAPPILASGPVPSPPRRGGGALHEEPELSDDDRANLMWKRYLEREDSKIVDLFVGQLKSCLKCQACGYRSTTFEVFCDLSLPIPKKGFAGGKVSLRDCFSLFTKEEELESENAPVCDRCRQKTRSTKKLTVQRFPRILVLHLNRFSTSRGSIKKSSVGVDFPLQRLSLGDFASDKAGSPVYQLYALCNHSGSVHYGHYTALCRCQTGWHVYNDSRVSPVSENQVASSEGYVLFYQLMQEPLRCL
